Results taken from patent US4610994A, “1,2,3-triazole anticonvulsant drugs” (priority 1984, dated 1986).

Assays:
[1] = test system: maximal electroshock seizures; assay: maximal electroshock seizure (MES) pattern test in mice; conditions: i.p.
[2] = loss of righting reflex (HD50) in mice i.p.; type: in vivo, mice (male albino, CF No. 1)

## Clc1ccc(-n2nncc2-c2cccnc2)cc1 [Compound 10, 1-(para-chlorophenyl)-5-(3-pyridyl)-1H-1,2,3-triazole]
[1]
  selectivity of effect (slope), resemblance, MES or sc Met tests: does not resemble any of the prototype agents by either the MES or sc Met tests
[2]
  Slope, regression line (HD50): 20.18

## CCC1(C)CC(=O)NC1=O (stereo not drawn) [Ethosuximide]
[2]
  Slope, regression line (HD50): 16.43

## CCC1(c2ccccc2)C(=O)NC(=O)NC1=O [Phenobarbital]
[2]
  Slope, regression line (HD50): 8.41

## O=C1NC(=O)C(c2ccccc2)(c2ccccc2)N1 [Phenytoin]
[2]
  Slope, regression line (HD50): 14.03

## CCCC(CCC)C(=O)O [Valproate]
[2]
  Slope, regression line (HD50): 12.46
